PubChem BioAssay AID1259254 – NCATS | 2017
Here is a random part of about 59,000 reagents tested. About 1,550 of all reagents (2.6%) were called active. 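G2 share is only a proxy for re-replication; each gene was hit by three separate siRNAs, and active genes were retested.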 Entries without a mark were called inactive. Reagents against one gene are numbered here. Further read-outs or replicates are left out here. The record does not give: the amount of reagent.

Screen: 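Gene knock-downs that lead to re-replication, shown by excess G2 DNA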 (primary screen)
Cell system: human HCT116 colorectal cancer cells
Knock-down reagent: single siRNA against human genes
Duration: 3 days
Read-out: 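Imaged Hoechst DNA stain sorts each cell into a cycle phase by DNA amount; per plate, G2 fraction set to 0% for non-targeting and 100% for GMNN siRNA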
Reading the numbers: G2 robust z-score: higher = more G2 cells, more excess DNA replication
Hit rule: 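An siRNA counts as active if its G2 robust z-score lies at least 5 MADs above the screen median; here such calls match roughly 38% of GMNN control or more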

{"gene symbol": "EDDM3B (epididymal protein 3B)", "reagent": 1, "G2 robust z-score": -1.35}
{"gene symbol": "EDDM3B (epididymal protein 3B)", "reagent": 2, "G2 robust z-score": 0.541}
{"gene symbol": "EDDM3B (epididymal protein 3B)", "reagent": 3, "G2 robust z-score": 1.32}
{"gene symbol": "ARHGEF7 (Rho guanine nucleotide exchange factor 7)", "reagent": 1, "G2 robust z-score": 0.583}
{"gene symbol": "ARHGEF7 (Rho guanine nucleotide exchange factor 7)", "reagent": 2, "G2 robust z-score": -1.02}
{"gene symbol": "ARHGEF7 (Rho guanine nucleotide exchange factor 7)", "reagent": 3, "G2 robust z-score": 1.61}

2 entries from above, sorted by “G2 robust z-score”, ascending:
{"gene symbol": "ARHGEF7 (Rho guanine nucleotide exchange factor 7)", "reagent": 1, "G2 robust z-score": 0.583}
{"gene symbol": "EDDM3B (epididymal protein 3B)", "reagent": 3, "G2 robust z-score": 1.32}

The results go on:
{"gene symbol": "AARS2 (alanyl-tRNA synthetase 2, mitochondrial)", "reagent": 1, "G2 robust z-score": 0.219}
{"gene symbol": "AARS2 (alanyl-tRNA synthetase 2, mitochondrial)", "reagent": 2, "G2 robust z-score": -0.704}
{"gene symbol": "AARS2 (alanyl-tRNA synthetase 2, mitochondrial)", "reagent": 3, "G2 robust z-score": -0.575}
{"gene symbol": "AKAP12 (A-kinase anchoring protein 12)", "reagent": 1, "G2 robust z-score": 2.48}
{"gene symbol": "AKAP12 (A-kinase anchoring protein 12)", "reagent": 2, "G2 robust z-score": -1.08}
{"gene symbol": "AKAP12 (A-kinase anchoring protein 12)", "reagent": 3, "G2 robust z-score": -0.164}
